PubChem BioAssay AID1259308 – NCATS, 2017

Screen: 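Knock-downs that increase output of a recombinant reporter protein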 (primary screen)
System: human HEK293 embryonic kidney cells stably expressing firefly luciferase (HEK-CMV-Luc2-Hygro)
Reagent: single siRNA against human genes, 0.8 pmol siRNA per well
Time to read-out: 72 h
Read-out: 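Luciferase light (ONE-Glo) measured on one replicate plate set and viability (CellTiter-Glo) on the other, scaled to a negative control siRNA, with robust z-scores and luciferase per cell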
Direction: total luciferase, z-score: higher = more reporter protein produced
Hit rule: 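An siRNA counts as active if its total luciferase robust z-score exceeds 3; genes with two or more such siRNAs out of three were retested with fresh siRNAs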
Meaning of the calls: active = raised luciferase; inactive = no rise
Shown is one part, drawn at random, of about 59,000 reagents. In the full data, about 1,510 (2.6%) were called active. 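Calls use total luciferase alone and ignore viability, so some active siRNAs may act by altering cell number.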 Entries without a mark were called inactive. Reagents against one gene are numbered here. Further read-outs or replicates are left out here. No sequences are given here.

{"gene symbol":"PPP4R3B (protein phosphatase 4 regulatory subunit 3B)","reagent no.":1,"total luciferase, z-score":0.437}
{"gene symbol":"PPP4R3B (protein phosphatase 4 regulatory subunit 3B)","reagent no.":2,"total luciferase, z-score":-0.349}
{"gene symbol":"PPP4R3B (protein phosphatase 4 regulatory subunit 3B)","reagent no.":3,"total luciferase, z-score":-2.46}
{"gene symbol":"ACRP1 (ACR pseudogene 1)","reagent no.":1,"total luciferase, z-score":0.82}
{"gene symbol":"ACRP1 (ACR pseudogene 1)","reagent no.":2,"total luciferase, z-score":0.941}
{"gene symbol":"ACRP1 (ACR pseudogene 1)","reagent no.":3,"total luciferase, z-score":0.744}
{"gene symbol":"DUS2 (dihydrouridine synthase 2)","reagent no.":1,"total luciferase, z-score":1.17}
{"gene symbol":"DUS2 (dihydrouridine synthase 2)","reagent no.":2,"total luciferase, z-score":"3.7 (active)"}
{"gene symbol":"DUS2 (dihydrouridine synthase 2)","reagent no.":3,"total luciferase, z-score":0.0659}
{"gene symbol":"EID2 (EP300 interacting inhibitor of differentiation 2)","reagent no.":1,"total luciferase, z-score":0.0726}
{"gene symbol":"EID2 (EP300 interacting inhibitor of differentiation 2)","reagent no.":2,"total luciferase, z-score":-0.25}
{"gene symbol":"EID2 (EP300 interacting inhibitor of differentiation 2)","reagent no.":3,"total luciferase, z-score":-0.305}
{"gene symbol":"PDE4DIPP3 (PDE4DIP pseudogene 3)","reagent no.":1,"total luciferase, z-score":0.318}
{"gene symbol":"PDE4DIPP3 (PDE4DIP pseudogene 3)","reagent no.":2,"total luciferase, z-score":"4.51 (active)"}
{"gene symbol":"PDE4DIPP3 (PDE4DIP pseudogene 3)","reagent no.":3,"total luciferase, z-score":0.317}
{"gene symbol":"GABRD (gamma-aminobutyric acid type A receptor subunit delta)","reagent no.":1,"total luciferase, z-score":2.59}
{"gene symbol":"GABRD (gamma-aminobutyric acid type A receptor subunit delta)","reagent no.":2,"total luciferase, z-score":0.502}
{"gene symbol":"GABRD (gamma-aminobutyric acid type A receptor subunit delta)","reagent no.":3,"total luciferase, z-score":-0.296}
{"gene symbol":"KRTDAP (keratinocyte differentiation associated protein)","reagent no.":1,"total luciferase, z-score":2.99}
{"gene symbol":"KRTDAP (keratinocyte differentiation associated protein)","reagent no.":2,"total luciferase, z-score":-0.518}
{"gene symbol":"KRTDAP (keratinocyte differentiation associated protein)","reagent no.":3,"total luciferase, z-score":0.881}
{"gene symbol":"DAPK3 (death associated protein kinase 3)","reagent no.":1,"total luciferase, z-score":0.0702}
{"gene symbol":"DAPK3 (death associated protein kinase 3)","reagent no.":2,"total luciferase, z-score":0.507}
{"gene symbol":"DAPK3 (death associated protein kinase 3)","reagent no.":3,"total luciferase, z-score":-1.1}
{"gene symbol":"SPIN2B (spindlin family member 2B)","reagent no.":1,"total luciferase, z-score":-0.0871}
{"gene symbol":"SPIN2B (spindlin family member 2B)","reagent no.":2,"total luciferase, z-score":0.781}
{"gene symbol":"SPIN2B (spindlin family member 2B)","reagent no.":3,"total luciferase, z-score":0.329}
{"gene symbol":"TCEANC","reagent no.":1,"total luciferase, z-score":0.808}
{"gene symbol":"TCEANC","reagent no.":2,"total luciferase, z-score":-0.849}
{"gene symbol":"TCEANC","reagent no.":3,"total luciferase, z-score":-1.46}
{"gene symbol":"ZNF485 (zinc finger protein 485)","reagent no.":1,"total luciferase, z-score":1.93}
{"gene symbol":"ZNF485 (zinc finger protein 485)","reagent no.":2,"total luciferase, z-score":-0.422}
{"gene symbol":"ZNF485 (zinc finger protein 485)","reagent no.":3,"total luciferase, z-score":0.976}

Ordered by “total luciferase, z-score” (ascending): some entries from above
{"gene symbol":"SPIN2B (spindlin family member 2B)","reagent no.":3,"total luciferase, z-score":0.329}
{"gene symbol":"SPIN2B (spindlin family member 2B)","reagent no.":2,"total luciferase, z-score":0.781}
